Source: paper PMC3723895
Positions count from the first letter of the chain named. Names may count otherwise. Results are given in words; binding and its absence hold for the method and conditions named. In cells and extracts the contact can be indirect. Some results given as binding are weak or reduced against the parent protein; the word gives no strength.

Amino acid sequences for entries named in this document (tags omitted).
UniProt P23804: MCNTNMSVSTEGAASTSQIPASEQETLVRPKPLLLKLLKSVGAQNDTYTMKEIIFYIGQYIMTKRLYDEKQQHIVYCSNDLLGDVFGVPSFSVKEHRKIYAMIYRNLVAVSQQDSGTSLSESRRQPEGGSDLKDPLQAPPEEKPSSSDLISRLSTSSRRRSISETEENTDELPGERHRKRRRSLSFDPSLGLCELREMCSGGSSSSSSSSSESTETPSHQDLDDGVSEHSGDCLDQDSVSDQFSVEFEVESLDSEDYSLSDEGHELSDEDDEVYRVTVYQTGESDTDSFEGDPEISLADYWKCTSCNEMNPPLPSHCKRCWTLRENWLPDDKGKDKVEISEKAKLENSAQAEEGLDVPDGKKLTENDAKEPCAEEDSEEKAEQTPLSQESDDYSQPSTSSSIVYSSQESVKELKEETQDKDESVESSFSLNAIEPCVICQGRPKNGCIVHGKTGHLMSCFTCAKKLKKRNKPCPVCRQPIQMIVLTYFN

Target: Mdm2 (murine double minute 2) (mouse (endogenous in E13.5 embryos)) (UniProt P23804)
Test: co-IP; 1 mg whole E13.5 embryo lysate (wild-type or mray/mray) with 10 ug Mdm2 antibody overnight at 4 °C, protein G Dynabeads 2.5 h, three washes; western blot with Pak1ip1 antibody; in triplicate

B1: Pak1ip1 (Pak1 interacting protein 1), wild-type mouse protein (protein, UniProt Q9DCE5 1-382)
chain: MELVAGSYEQVLFGFTVQRGPAKSGHQETWTPVADFTHHSHTASLSVLASNSRYVVSGSKDETIHIYDMKRKVEHGALVHHAGTVTCLKFHGNQHLISGAEDGHICIWDVKRWKCLKTFKAHRGHVTFLSIHPSGKLALSVGTDKTLRTWNLIEGRSAFIKNIKENAHIVEWSPSGGKYIVVVQNKVDVYRLGTASVSGTITNGKRISSVTFLSDSVLAVAGDEEVVRIFDCDSLECLCEFRAHENRVKDMVSFEVPDHHVLVTASNDGFIKMWTLPQDKKVPPSLLCEAKTGARLTCLTVWLDRAANGMASLPPAAEPCPDQPKTIEKESGDTVQEETSEPNSEKSDVSGDSKQPTKGNSPVTAKKRKMATMSEKKRKKKM
For B1, the binding was “binds”.

B2: Pak1ip1 H122Y, protein of the manta-ray (mray) allele (protein, UniProt Q9DCE5 1-382)
chain: B1 chain with H122Y
B2 was tested, and the binding was “binds”.
